{"sequences": {"note": "The chains behind the UniProt entries cited, without tags or fusion partners. Where a name states a change or a piece, a line headed by the entry shows the natural chain unless it says otherwise.", "UniProt P18054": "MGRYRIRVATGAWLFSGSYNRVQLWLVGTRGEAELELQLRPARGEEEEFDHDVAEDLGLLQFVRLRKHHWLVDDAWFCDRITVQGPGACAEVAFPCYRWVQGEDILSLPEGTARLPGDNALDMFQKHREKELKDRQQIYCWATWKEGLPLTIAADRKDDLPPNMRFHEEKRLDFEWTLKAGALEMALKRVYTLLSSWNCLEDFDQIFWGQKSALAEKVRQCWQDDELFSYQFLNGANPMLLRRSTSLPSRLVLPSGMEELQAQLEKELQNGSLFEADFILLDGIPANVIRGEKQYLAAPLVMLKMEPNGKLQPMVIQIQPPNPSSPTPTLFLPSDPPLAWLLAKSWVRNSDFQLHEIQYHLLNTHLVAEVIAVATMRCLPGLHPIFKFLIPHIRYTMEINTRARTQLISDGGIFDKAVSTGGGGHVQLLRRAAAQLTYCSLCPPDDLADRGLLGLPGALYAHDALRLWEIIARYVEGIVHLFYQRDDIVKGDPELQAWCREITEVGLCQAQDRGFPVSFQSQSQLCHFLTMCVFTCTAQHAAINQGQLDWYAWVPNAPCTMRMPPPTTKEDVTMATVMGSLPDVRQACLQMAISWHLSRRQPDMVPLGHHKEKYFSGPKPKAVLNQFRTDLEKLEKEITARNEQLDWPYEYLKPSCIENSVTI"}, "source": "PubChem BioAssay AID1671190", "about": "(National Center for Advancing Translational Sciences (NCATS), 2021)", "note": "Among all 580,000 compounds or so, about 6,100 (1.1%) were called active. Inconclusive results, whose numbers are uncertain, are shown with a selection of clear calls. The call rests on the fitted dose curve; in most records, active means well fitted inhibition curve with a large enough effect; inconclusive means small, poorly fitted or top-dose-only effect, or another doubt; inactive means no such curve, though single readings can be large or run the other way. A potency beside an inconclusive call is a rough fit, not a confirmed value. On the % scale 0 is the no-effect control and ±100 the full control effect; potency means the concentration at half of the fitted maximal effect."}
{"target": "Polyunsaturated fatty acid lipoxygenase ALOX12 (Homo sapiens) (UniProt P18054)", "assay": "Primary qHTS assay for inhibitors of human arachidonate 12S-lipoxygenase (ALOX12): Round 2", "settings": "purified 12hLO, xylenol orange hydroperoxide absorbance; activity change, negative = inhibition: at 108 µM (top of the series) unless noted", "outline": "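Hydroperoxide product was detected by ferrous iron/xylenol orange as the 573 to 405 nm absorbance ratio. Arachidonic acid at 40 uM (final) was turned over for 30 min at room temperature by 150 nM human 12hLO, pH 7.0 Hepes buffer, after 15 min compound preincubation.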"}
{"smiles": "N#C/C(=C(\\O)Cc1ccccc1)c1nc2ccccc2[nH]1", "activity change, negative = inhibition": "inactive: 156%"}
{"smiles": "Cc1cccc(C(=O)OCc2ccc(-c3ccccc3)cc2)n1", "Potency": "inconclusive: 31.6 µM [inhibitor, partial curve, poor fit]"}
{"smiles": "COc1cc(-c2nc(CN3CCN(c4ncccn4)CC3)c(C)o2)ccc1F", "Potency": "inconclusive: 112 µM [inhibitor, partial curve, poor fit]"}
{"smiles": "O=C(Nc1ccccn1)c1ccc(=O)[nH]n1", "Potency": "inconclusive: 44.7 µM [inhibitor, partial curve, poor fit]"}
{"smiles": "CCOC(=O)c1c(NC(=S)Nc2ccc(C)cc2)sc2c1CCC2", "Potency": "inconclusive: 50.1 µM [inhibitor, partial curve, poor fit]"}
{"smiles": "Cc1ccc(S(=O)(=O)c2nc(-c3ccc(F)cc3)oc2SCC(N)=O)cc1", "Potency": "inconclusive: 100 µM [inhibitor, single point]"}
{"smiles": "Cc1ccccc1Cn1cnc2ccccc2c1=O", "activity change, negative = inhibition": "inactive: -13.3%"}
{"smiles": "CCn1cc(S(=O)(=O)Nc2cc(Cl)cc(Cl)c2)cn1", "activity change, negative = inhibition": "inactive: -7.66%"}
{"smiles": "COc1ccc(S(=O)(=O)N2CCN(C(=O)/C=C/c3ccco3)CC2)cc1", "Potency": "inconclusive: 44.7 µM [inhibitor, partial curve, poor fit]"}
{"smiles": "COc1cccc(-n2c(C)c(C(C)=O)c(C(C)=O)c2C)c1", "Potency": "inconclusive: 11.2 µM [inhibitor, full curve, poor fit]"}
{"smiles": "CCN(CC)CCNC(=O)c1ccc2c(=O)n3nc(Nc4ccccc4)sc3nc2c1", "Potency": "inconclusive: 56.2 µM [inhibitor, partial curve, poor fit]"}
{"smiles": "COc1ccc(NC(=O)Cc2c(C)c3c(O)cc(C)cc3oc2=O)cc1OC", "Potency": "inconclusive: 7.94 µM [inhibitor, full curve]"}
{"smiles": "COC(=O)c1ccc(-n2cncn2)c([N+](=O)[O-])c1", "activity change, negative = inhibition": "inactive: -12.1%"}
{"smiles": "CN1CCN(c2ccnc(-c3ccc(N(C)C)cc3)n2)CC1", "Potency": "inconclusive: 89.1 µM [inhibitor, partial curve, poor fit]"}
{"smiles": "CCCN(C)C(=O)c1c(-c2ccc(F)cc2)noc1[C@H](C)O", "Potency": "inconclusive: 44.7 µM [inhibitor, full curve, poor fit]"}
{"smiles": "COc1cc(C)cc(O)c1", "Potency": "inconclusive: 63.1 µM [inhibitor, partial curve, poor fit]"}
{"smiles": "Cc1ccc2nc(NC(=O)C3CCN(S(=O)(=O)c4cc([N+](=O)[O-])ccc4Cl)CC3)sc2c1", "Potency": "inconclusive: 44.7 µM [inhibitor, partial curve]"}
{"smiles": "O=S(=O)(c1ccc(Oc2ccc3ccccc3c2)nc1)N1CCCCC1", "activity change, negative = inhibition": "inactive: -16.5%"}
{"smiles": "Cc1ccc(N=Cc2c(C)[nH]n(-c3ccccc3)c2=O)nc1", "Potency": "inconclusive: 28.2 µM [inhibitor, single point]"}
{"smiles": "Cc1nn(-c2ncccn2)c2c1C(c1ccc(OCCc3ccccc3)cc1)CC(=O)N2", "note": "(stereo not drawn)", "Potency": "inconclusive: 44.7 µM [inhibitor, partial curve, poor fit]"}
{"smiles": "Oc1cccc(C(O)CNC/C=C/c2ccccc2)c1", "note": "(stereo not drawn)", "Potency": "inconclusive: 79.4 µM [inhibitor, single point]"}
{"smiles": "ONC(=NCc1ccccc1)c1ccccc1", "activity change, negative = inhibition": "inactive: 0.375%"}
{"smiles": "Cc1ccc(OCCOCCN2CCN(C)CC2)c([N+](=O)[O-])c1", "Potency": "inconclusive: 11.2 µM [inhibitor, partial curve, poor fit]"}
{"smiles": "Cc1cccc(C(=O)N(C2CCCCC2)C2CCCCC2)c1", "activity change, negative = inhibition": "inactive: 5.49%"}
{"smiles": "CC(C)Oc1ccc(CNS(=O)(=O)c2ccc(-c3cc(C(F)(F)F)on3)s2)cc1", "Potency": "inconclusive: 158 µM [inhibitor, partial curve, poor fit]"}
{"smiles": "Cc1ccc(/C(O)=C2\\C(=O)C(=O)NC2c2ccccc2)cc1", "note": "(stereo not drawn)", "Potency": "inconclusive: 50.1 µM [inhibitor, single point]"}
{"smiles": "CC(C)c1ccc(NC(=S)NCc2ccc(F)cc2)cc1", "Potency": "inconclusive: 63.1 µM [inhibitor, partial curve, poor fit]"}
{"smiles": "CCOC(=O)C1=C(COC(=O)CNC(=O)c2ccc(Cl)cc2Cl)NC(=O)NC1C", "note": "(stereo not drawn)", "Potency": "inconclusive: 10 µM [inhibitor, partial curve, poor fit]"}
{"smiles": "COc1cccc(NC(=O)CSC(N)=O)c1", "Potency": "inconclusive: 50.1 µM [inhibitor, partial curve, poor fit]"}
{"smiles": "COc1ccc(OC)c(-c2cc(Cl)c3c(c2)CC(CNC(=O)/C=C/c2ccccn2)O3)c1", "note": "(stereo not drawn)", "Potency": "inconclusive: 141 µM [inhibitor, single point]"}
{"smiles": "CCCOc1ccc(NC(=O)c2ccc(C)cc2)c2cccnc12", "activity change, negative = inhibition": "inactive: -15.6%"}
{"smiles": "COC(=O)c1ccoc1COC(=O)CCc1c(C)c2ccc(OC)cc2oc1=O", "activity change, negative = inhibition": "inactive: -58.4%"}
{"smiles": "COc1cccc(NCc2cc(=O)oc3cc(-c4ccccc4)c(O)cc23)c1", "activity change, negative = inhibition": "inactive: 6.5%"}
{"smiles": "Cc1cnn(CCC(=O)N2CCC(Oc3ccccc3)(C(=O)O)CC2)c1", "Potency": "inconclusive: 7.94 µM [inhibitor, full curve, poor fit]"}
{"smiles": "O=C(O)/C(=C\\c1ccc(Cl)c([N+](=O)[O-])c1)c1ccc(S(=O)(=O)N2CCCCC2)s1", "Potency": "inconclusive: 50.1 µM [inhibitor, partial curve, poor fit]"}
{"smiles": "COc1ccc(NC(=O)c2cccc(S(=O)(=O)N3CCCC3)c2)cc1OC", "Potency": "inconclusive: 89.1 µM [inhibitor, single point]"}
{"smiles": "Cc1cccc(OCCC(=O)NC(C)c2ccc(F)cc2)c1", "note": "(stereo not drawn)", "Potency": "inconclusive: 126 µM [inhibitor, partial curve, poor fit]"}
{"smiles": "COCCNC(=O)CCCN1C(=O)COc2ccc(C(=O)COc3cc(C)cc(C)c3)cc21", "activity change, negative = inhibition": "inactive: 4.99%"}
{"smiles": "Cc1ccc(C(O)c2ncc(-c3ccccc3Cl)[nH]2)cc1F", "note": "(stereo not drawn)", "Potency": "inconclusive: 39.8 µM [inhibitor, partial curve, poor fit]"}
{"smiles": "CCOc1ccccc1/C=C/C(=O)c1ccc(Cl)cc1", "activity change, negative = inhibition": "inactive: -2.34%"}
{"smiles": "Cc1cc2oc3ccc(NCCCN4CCOCC4)cc3c(=O)c2cc1C", "Potency": "inconclusive: 100 µM [inhibitor, single point]"}
{"smiles": "O=C(CCc1ccccc1)Nc1nnc(-c2ccccn2)o1", "activity change, negative = inhibition": "inactive: -7.04%"}
{"smiles": "CCOc1cc(/C=C2/N=C(C)C(C(=O)OC)=C2O)ccc1O", "Potency": "inconclusive: 50.1 µM [inhibitor, partial curve, poor fit]"}
{"smiles": "Cc1cc(C)c(NC2=NCC(=O)N2C2CCCCC2)c(C)c1", "Potency": "inconclusive: 35.5 µM [inhibitor, partial curve, poor fit]"}
{"smiles": "COc1ccc(NC(=O)c2ccc(NC(=O)COC(=O)CC(NC(=O)c3ccccc3Cl)c3ccccc3)cc2)cc1", "note": "(stereo not drawn)", "Potency": "inconclusive: 50.1 µM [inhibitor, partial curve, poor fit]"}
{"smiles": "Cc1ccc(-c2ccc(=O)n(CC(=O)Nc3c(C)cccc3C)n2)cc1S(=O)(=O)N1CCOCC1", "activity change, negative = inhibition": "inactive: 1.45%"}
{"smiles": "O=C(CC1C(=O)NCCN1Cc1ccccc1)NC1CCCCC1", "note": "(stereo not drawn)", "Potency": "inconclusive: 22.4 µM [inhibitor, partial curve, poor fit]"}
{"smiles": "COCCn1c(SCC(=O)Nc2ccc(C(F)(F)F)cc2)nc2c([nH]c3ccccc32)c1=O", "Potency": "inconclusive: 141 µM [inhibitor, partial curve, poor fit]"}
{"smiles": "O=C(Nc1cccc(F)c1)/C(=C\\c1ccco1)NC(=O)c1ccco1", "Potency": "inconclusive: 44.7 µM [inhibitor, partial curve, poor fit]"}
{"smiles": "Cc1ccc(NC(=O)c2oc3ccc(S(=O)(=O)N4CCC5(CC4)OCCO5)cc3c2C)c(C)c1", "Potency": "inconclusive: 141 µM [inhibitor, partial curve, poor fit]"}
{"smiles": "N#Cc1ccc(CN2CCn3c(nnc3-c3ccncc3)C2)cc1", "activity change, negative = inhibition": "inactive: 6.03% [at 6.33 µM]"}
{"smiles": "S=C(NCc1cccc(Cl)c1)NCc1cccs1", "Potency": "inconclusive: 44.7 µM [inhibitor, partial curve, poor fit]"}
{"smiles": "O=c1cc[nH]c(=S)[nH]1", "Potency": "inconclusive: 1.58 µM [inhibitor, full curve, poor fit]"}
{"smiles": "Cc1ccc(SCC(=O)NC(C)(C#N)C2CC2)cc1C", "note": "(stereo not drawn)", "Potency": "inconclusive: 56.2 µM [inhibitor, partial curve]"}
{"smiles": "O=C(CSc1nnc(CNC(=O)c2ccco2)o1)Nc1nc2ccccc2s1", "activity change, negative = inhibition": "inactive: 9.77%"}
{"smiles": "CC(=O)c1c[nH]c(C(=O)OCc2cc(=O)oc3cc(C)ccc23)c1", "activity change, negative = inhibition": "inactive: -50.9%"}
{"smiles": "COc1ccc(-n2c(SC(CN3CCCCC3)CN3CCCC3=O)nc3ccccc3c2=O)cc1", "note": "(stereo not drawn)", "Potency": "inconclusive: 11.2 µM [inhibitor, partial curve, poor fit]"}
{"smiles": "Brc1ccc(-c2nc3ncccn3c2NC2CCCCC2)o1", "Potency": "inconclusive: 100 µM [inhibitor, single point]"}
{"smiles": "N#CCSc1sc(=S)sc1SCC#N", "Potency": "inconclusive: 35.5 µM [inhibitor, partial curve, poor fit]"}
{"smiles": "CCCCCCc1cc2c(-c3ccccc3)cc(=O)oc2cc1O", "Potency": "inconclusive: 31.6 µM [inhibitor, partial curve]"}
{"smiles": "O=C(O)c1ccc2ncsc2c1", "Potency": "active: 44.7 µM"}
{"smiles": "CC(C)=NNC(=O)CN1C(=O)NC2NC(=O)NC21", "note": "(stereo not drawn)", "activity change, negative = inhibition": "inactive: -16.7%"}
{"smiles": "O=C(NCc1ccccc1Cl)c1ccc(NC(=O)N2CCSc3ncccc32)cc1", "Potency": "inconclusive: 158 µM [inhibitor, partial curve, poor fit]"}
{"smiles": "O=C(CCNS(=O)(=O)c1ccc(Cl)cc1)OCC(=O)c1ccc[nH]1", "activity change, negative = inhibition": "inactive: 10.2%"}
{"smiles": "O=C(NCC(=O)N1CCCCCC1)c1ccc(Cl)cc1", "activity change, negative = inhibition": "inactive: -7.31%"}
{"smiles": "CCCc1c(C(=O)N/N=C/c2ccc(OCc3ccc(F)cc3)cc2)nnn1-c1nonc1N", "Potency": "inconclusive: 100 µM [inhibitor, single point]"}
{"smiles": "COc1cc(C(=O)N[C@H](C(=O)NC2CCCc3ccccc32)C(C)C)cc(OC)c1OC", "note": "(stereo partly drawn)", "activity change, negative = inhibition": "inactive: 39.5%"}
{"smiles": "Cc1cccc(C(=O)C(Cl)C(=O)c2cccc(C)c2)c1", "Potency": "inconclusive: 44.7 µM [inhibitor, partial curve, poor fit]"}
